# Some of the results follow. Shown are side measurements of this screen, not its main read-out; they come without a call. Most of these compounds were active or inconclusive in the main read-out, so they are no random draw. The note in brackets gives the kind of curve behind each potency; many fits are weak.
# Assay: qHTS Assay to Find Inhibitors of Chronic Active B-Cell Receptor Signaling
# Settings: ABC-DLBCL IkBa-CBG/CBR reporter, luminescence ratio (green luciferase fused to IkBa over red control in TMD8 lymphoma cells), 4 h
# How it was run: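 Concentration-response series (up to 46 uM) were applied to TMD8 dual-reporter cells for 4 h at 37C with doxycycline. Green/red ratio, after filter-overlap correction, defined %Activity; red signal alone was normalised to basal cells and zero luminescence.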
# [1] = measured here: CBR red luminescence, cell number
# [2] = measured here: IkBa-CBG green luminescence
Structure (SMILES),AC50 [1],AC50 [2]
O=C(NC1=NCCS1)c1cc(-c2cccs2)nc2ccccc12,"10 µM [falling, partial curve, poor fit]","15.8 µM [rising, partial curve, poor fit]"
O=C(NC(Cc1c[nH]c2ccccc12)C(=O)N/N=C/c1cccc2ccccc12)c1cccs1 (stereo not drawn),"6.51 µM [falling, partial curve]",
CC(C)c1ccc2oc(-c3ccc(N)cc3)nc2c1,"5.62 µM [falling, partial curve, poor fit]",
COc1ccc(OC)c(Cc2nnc(CCC(=O)N3CCCCC3c3nccs3)o2)c1 (stereo not drawn),"35.5 µM [rising, single point]",
O=C(CSc1ccc2nnc(-c3ccc(Cl)cc3)n2n1)N1CCc2ccccc21,,"2.91 µM [rising, partial curve, poor fit]"
Cc1cccc(NCc2ccc(Br)cc2)n1,"14.1 µM [rising, partial curve]",
COc1ccc(/C=N/Nc2ccc([N+](=O)[O-])cc2)cc1O,"0.794 µM [rising, full curve, poor fit]",
O=C(Nc1ccccc1)NC1CCCCC1,"0.58 µM [falling, full curve]",
O=C(Nc1ccc(Cl)cc1F)C1CC1c1ccccc1 (stereo not drawn),"0.447 µM [rising, full curve, poor fit]",
O=C(NCCc1ccc(Cl)cc1Cl)c1cc([N+](=O)[O-])c[nH]c1=O,"1.78 µM [falling, full curve, poor fit]",
OC(c1ccc(Cl)cc1)c1nccc2ccccc12 (stereo not drawn),"12.6 µM [rising, partial curve, poor fit]",
COc1ccccc1Nc1nc(N(C)c2ccccc2)nc(N)c1[N+](=O)[O-],"2.51 µM [rising, partial curve]",
Cc1ncc(CSc2nc3ccccc3[nH]2)c(N)n1,"0.731 µM [falling, partial curve, poor fit]",
O=C(O)CN1C(=O)/C(=C/c2ccc(N3CCCCC3)o2)SC1=S,"22.4 µM [rising, partial curve, poor fit]",
CN(C)C(=O)C[n+]1ccc(C(N)=O)cc1,"5.62 µM [falling, single point]",
O=c1c2[nH]c3ccc(F)cc3c2nc2n1CCCS2,"20 µM [falling, single point]",
CC1CCCCC12NC(=O)N(CC(=O)N1CCN(S(=O)(=O)Cc3ccccc3)CC1)C2=O (stereo not drawn),"0.517 µM [falling, full curve, poor fit]",
COc1ccc2sc(NC(=O)NC(=O)c3c(Cl)cccc3Cl)nc2c1,"35.5 µM [falling, single point]",
Nc1c(Nc2ccccc2)c2ccccc2oc1=O,"18.4 µM [rising, single point]",
CCN1C(=O)C2(C(C#N)=C(N)Oc3c2c(C)nn3-c2ccccc2)c2ccccc21 (stereo not drawn),"1.78 µM [falling, partial curve]",
CN(C)c1nc2ncn(Cc3ccccc3)c2c(=O)[nH]1,"3.55 µM [rising, partial curve, poor fit]",

Structure (SMILES),AC50 [1],AC50 [2]
CCc1nc2sc(C(C)=O)c(N)c2c2c1CCCC2,,"12.6 µM [rising, partial curve, poor fit]"
Fc1cc2[nH]cnc2cc1Cl,"5.62 µM [rising, partial curve, poor fit]",
CC(=O)N1[C@H](C)C=C[C@]1(Cc1ccccc1)C(=O)NCCc1c[nH]c2ccccc12,"10 µM [falling, partial curve]",
O=C(CNC(=O)c1ccc(-c2ccccc2)cc1)Nc1ccc(S(=O)(=O)Nc2ncccn2)cc1,"22.4 µM [falling, partial curve, poor fit]",
CCCCOC(=O)c1ccc(NC(=O)/C=C/c2cccs2)cc1,"3.66 µM [falling, full curve]",
COC(=O)[C@H](Cc1ccccc1)NC(=O)NCc1ccc(S(N)(=O)=O)cc1,"0.103 µM [falling, full curve, poor fit]",
Cc1cc(CNC(=O)Cc2c(F)cccc2Cl)nn1C,"1.16 µM [rising, full curve]",
CCCc1cc(C(=O)OC)c(NC(=O)OCC)s1,"23.1 µM [rising, partial curve, poor fit]",
C=CCN=C1N[C@@H](c2ccc(Br)cc2)C(C(=O)OC)=C(C)N1Cc1ccccc1,"7.94 µM [falling, partial curve, poor fit]",
Cc1cc(C)nc(SCC(=O)N2CCC(C(N)=O)CC2)n1,"16.4 µM [rising, partial curve]",
Cc1cc(C(=O)N/N=C2\CCCC(C)C2)n[nH]1 (stereo not drawn),"2.06 µM [falling, partial curve, poor fit]",
O=c1c2cc(Br)ccc2nc(-c2cccc(Cl)c2)n1O,"5.62 µM [falling, partial curve]",
CC1(C)CC(=O)C2=C(C1)NC(SCC(=O)Nc1ccccc1)=C(C#N)C2c1ccco1 (stereo not drawn),"25.1 µM [falling, single point]",
Cc1cc(=O)oc2c3c(cc(OCC(=O)NC(C)C)c12)OC(C)(C)CC3,"35.5 µM [falling, single point]",
Cc1cccc2c1cnn2C(=O)Nc1ccc(Br)cc1F,"35.5 µM [falling, single point]",
COc1ccc(Nc2cc3n(c(=O)n2)CCc2cc(OC)c(OC)cc2-3)c(C)c1,,"12.6 µM [falling, partial curve]"
COc1ccc(NC(=O)c2cccs2)cc1O,"11.2 µM [falling, partial curve]",
Cc1nc(-c2ccccc2)sc1-c1nc(-c2cccs2)ncc1S(=O)(=O)c1ccccc1,"6.31 µM [falling, single point]",
Cc1nn(CC(=O)NCC2CCCO2)c(C)c1[N+](=O)[O-] (stereo not drawn),"22.4 µM [falling, single point]",
Cc1cccc(NC(=O)Nc2cccc3ccccc23)c1,"0.0891 µM [falling, full curve, poor fit]",
CC(CN1c2ccccc2Sc2ccccc21)N(C)C (stereo not drawn),"10 µM [falling, partial curve, poor fit]",

# Reprinted at random: 2 records from the list
Structure (SMILES),AC50 [1],AC50 [2]
CC(=O)N1[C@H](C)C=C[C@]1(Cc1ccccc1)C(=O)NCCc1c[nH]c2ccccc12,"10 µM [falling, partial curve]",
CN(C)c1nc2ncn(Cc3ccccc3)c2c(=O)[nH]1,"3.55 µM [rising, partial curve, poor fit]",
